Numbering of substitutions follows the chain as printed. No constants are given. Whether binding was seen depends on the method and setting. Binding seen in cells or lysates may run through a third protein. Some binding calls cover weakened binding; strength is not graded here.
Experiments:
[1] = target: T1, GHRHR L62A (human) (UniProt Q02643); assay: FRET or BRET; β-arrestin 1/2 recruitment assay in live HEK293T cells co-transfected with receptor-Rluc8 and β-arrestin 1/2-Venus (1:9 mass ratio); coelenterazine h; started with 250 μM GHRH; AUC of the BRET time course (535 nm/470 nm) normalised to WT GHRHR = 100%
T1 sequence: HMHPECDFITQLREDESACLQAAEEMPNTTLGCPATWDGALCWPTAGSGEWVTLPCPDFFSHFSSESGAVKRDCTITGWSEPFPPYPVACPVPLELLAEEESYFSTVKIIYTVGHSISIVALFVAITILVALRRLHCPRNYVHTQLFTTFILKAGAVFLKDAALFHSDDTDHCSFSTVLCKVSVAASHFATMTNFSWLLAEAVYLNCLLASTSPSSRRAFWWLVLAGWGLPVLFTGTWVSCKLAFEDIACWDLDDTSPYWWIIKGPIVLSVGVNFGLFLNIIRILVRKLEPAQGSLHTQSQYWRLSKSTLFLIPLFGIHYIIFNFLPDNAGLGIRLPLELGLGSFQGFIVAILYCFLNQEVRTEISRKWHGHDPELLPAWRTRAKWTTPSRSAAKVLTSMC

By UniProt entry, the sequences of proteins in these tests, tags left out.
UniProt P49407: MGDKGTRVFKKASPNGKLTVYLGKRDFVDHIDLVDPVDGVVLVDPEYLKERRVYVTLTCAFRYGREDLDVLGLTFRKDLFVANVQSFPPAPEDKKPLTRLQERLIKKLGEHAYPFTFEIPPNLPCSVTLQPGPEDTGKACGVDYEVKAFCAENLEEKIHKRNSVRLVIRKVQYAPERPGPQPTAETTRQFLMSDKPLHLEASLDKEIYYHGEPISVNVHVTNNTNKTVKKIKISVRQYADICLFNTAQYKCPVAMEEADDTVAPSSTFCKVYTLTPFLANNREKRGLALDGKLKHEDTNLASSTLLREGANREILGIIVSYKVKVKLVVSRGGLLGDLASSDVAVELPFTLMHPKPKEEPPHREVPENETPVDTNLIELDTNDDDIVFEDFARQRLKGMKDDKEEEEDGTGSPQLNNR

[2] = target: T2, GHRHR with all four ECD residues L34, L62, F82 and F85 substituted with alanine (human) (UniProt Q02643); assay: as above
T2 sequence: T1 sequence with L12A, F60A, F63A

β-arrestin 1-Venus (from UniProt P49407 1-418)
binding [1]: binds
binding [2]: binds

From publication PMC8501799, “Constitutive signal bias mediated by the human GHRHR splice variant 1” (Proceedings of the National Academy of Sciences of the …, 2021)
